In US6946547B2, “Ecstasy-class analogs and use of same in detection of ecstasy-class compounds” (Microgenics Corporation, priority 2000, dated 2005):

How the values were obtained:
Antibody 1A9 = test: CEDIA ecstasy-class assay on a Hitachi clinical chemistry analyzer; assay type: binding, mouse
Procedure: Antibodies obtained using any of the aforementioned techniques are screened or purified not only for their ability to react with an ecstasy-class compound, but also for a low cross-reactivity with potential interfering substances. “Cross reactivity” is determined in a quantitative immunoassay by establishing a standard curve using known dilutions of the target analyte, e.g., MDMA. […] The cross-reactivity is the apparent concentration divided by the actual concentration multiplied by 100. […] Alternatively, the cross-reactivity can be determined in the same type of immunoassay in which the antibody will ultimately be used.
• a. Preparation of Reagents:
Enzyme Donor (ED) Reagent was prepared as a liquid reagent with the components below:
Assay Protocol: The assay was performed on a Hitachi clinical chemistry analyzer as follows: Sample was pipetted into a reaction cuvette. EA reagent, containing antibody, was added. The mixture was incubated at 37° C. for approximately 5 minutes. ED reagent containing […] was subsequently added, and the incubation continued for 4 minutes at 37° C. The rate of substrate hydrolysis was measured photometrically at 570 nm (with subtraction of background at 660 nm) from four to five minutes after ED addition.

[1] = Standard CEDIA DAU Amphetamines assay, Hitachi 911
[2] = tested on: 1A9 anti-ecstasy antibody; test: Enhanced CEDIA DAU Amphetamines assay (1A9 antibody and ED28-(MB-MDA)2 added)
[3] = Antibody 1A9, Experiment 1, concentration 300 ng/mL
[4] = Antibody 1A9, Experiment 1, concentration 300 ng/mL, from MDMA standard curve
[5] = Antibody 1A9, Experiment 1, concentration 1000 ng/mL
[6] = Antibody 1A9, Experiment 1, concentration 1000 ng/mL, from MDMA standard curve
[7] = Antibody 1A9, Experiment 1, concentration 5000 ng/mL
[8] = Antibody 1A9, Experiment 1, concentration 5000 ng/mL, from MDMA standard curve
[9] = Antibody 1A9, Experiment 2, concentration 600,000 ng/mL
[10] = Antibody 1A9, Experiment 2, concentration 1,000,000 ng/mL

## CCC(N)Cc1ccc2c(c1)OCO2 (stereo not drawn) [BDB, 1-(3,4-methylenedioxyphenyl)-2-butanamine]
Antibody 1A9; [3]
  Rate: 169 MAU/min
Antibody 1A9; [4]
  Apparent Dose: 100 ng/mL
Antibody 1A9; [5]
  Rate: 465 MAU/min
Antibody 1A9; [6]
  Apparent Dose: 500* ng/mL
Antibody 1A9; [7]
  Rate: 772 MAU/min
Antibody 1A9; [8]
  Apparent Dose: 1490 ng/mL

## CNC(C)Cc1ccc(O)c(OC)c1 (stereo not drawn) [HMMA, 4-hydroxy-3-methoxymethamphetamine]
Antibody 1A9; [3]
  Rate: 80 MAU/min
Antibody 1A9; [4]
  Apparent Dose: 0 ng/mL

## CCC(Cc1ccc2c(c1)OCO2)NC (stereo not drawn) [MBDB, N-methyl-1-(3,4-methylenedioxyphenyl)-2-butanamine]
Antibody 1A9; [3]
  Rate: 143 MAU/min
Antibody 1A9; [4]
  Apparent Dose: 70 ng/mL
Antibody 1A9; [5]
  Rate: 341 MAU/min
Antibody 1A9; [6]
  Apparent Dose: 290 ng/mL
Antibody 1A9; [7]
  Rate: 695 MAU/min
Antibody 1A9; [8]
  Apparent Dose: 890 ng/mL

## CC(N)Cc1ccc2c(c1)OCO2 (stereo not drawn) [MDA, 3,4-methylenedioxyamphetamine]
Antibody 1A9; [3]
  Rate: 228 MAU/min
Antibody 1A9; [4]
  Apparent Dose: 160 ng/mL
Antibody 1A9; [5]
  Rate: 573 MAU/min
Antibody 1A9; [6]
  Apparent Dose: 680 ng/mL
Antibody 1A9; [7]
  Rate: 807 MAU/min
Antibody 1A9; [8]
  Apparent Dose: 3160 ng/mL
[1]; 150 ng/mL
  Standard CEDIA Amphetamines Mean Rates: 155.6 mAU/min
[1]; 300 ng/mL
  Standard CEDIA Amphetamines Mean Rates: 156.7 mAU/min
[1]; 500 ng/mL
  Standard CEDIA Amphetamines Mean Rates: 157.9 mAU/min
[1]; 700 ng/mL
  Standard CEDIA Amphetamines Mean Rates: 159.1 mAU/min
[1]; 1000 ng/mL
  Standard CEDIA Amphetamines Mean Rates: 160.7 mAU/min
[2]; 150 ng/mL
  Enhanced CEDIA Amphetamines Mean Rates: 228.4 mAU/min
[2]; 300 ng/mL
  Enhanced CEDIA Amphetamines Mean Rates: 257.3 mAU/min
[2]; 500 ng/mL
  Enhanced CEDIA Amphetamines Mean Rates: 300.3 mAU/min
[2]; 700 ng/mL
  Enhanced CEDIA Amphetamines Mean Rates: 343.1 mAU/min
[2]; 1000 ng/mL
  Enhanced CEDIA Amphetamines Mean Rates: 388.0 mAU/min

## CCNC(C)Cc1ccc2c(c1)OCO2 (stereo not drawn) [MDEA, N-ethyl-3,4-methylenedioxyamphetamine]
Antibody 1A9; [3]
  Rate: 446 MAU/min
Antibody 1A9; [4]
  Apparent Dose: 460* ng/mL
Antibody 1A9; [5]
  Rate: 842 MAU/min
Antibody 1A9; [6]
  Apparent Dose: 4840 ng/mL
Antibody 1A9; [7]
  Rate: 860 MAU/min
Antibody 1A9; [8]
  Apparent Dose: >5000 ng/mL

## CNC(C)Cc1ccc2c(c1)OCO2 (stereo not drawn) [MDMA, 3,4-methylenedioxymethamphetamine]
Antibody 1A9; [3]
  Rate: 349 MAU/min
Antibody 1A9; [5]
  Rate: 762 MAU/min
Antibody 1A9; [7]
  Rate: 845 MAU/min
Antibody 1A9; Antibody 1A9, Experiment 2, concentration 300 ng/mL
  Rate: 378.6 MAU/min
Antibody 1A9; Antibody 1A9, Experiment 2, concentration 1000 ng/mL
  Rate: 840.3 MAU/min
Antibody 1A9; Antibody 1A9, Experiment 2, concentration 5000 ng/mL
  Rate: 990.8 MAU/min

## CN[C@@H](C)Cc1ccccc1 [Methamphetamine]
Antibody 1A9; [9]
  Apparent Dose: 337 ng/mL
  Rate: 417.4 MAU/min
[1]; 150 ng/mL
  Standard CEDIA Amphetamines Mean Rates: 187.2 mAU/min
[1]; 300 ng/mL
  Standard CEDIA Amphetamines Mean Rates: 223.4 mAU/min
[1]; 500 ng/mL
  Standard CEDIA Amphetamines Mean Rates: 262.3 mAU/min
[1]; 700 ng/mL
  Standard CEDIA Amphetamines Mean Rates: 289.9 mAU/min
[1]; 1000 ng/mL
  Standard CEDIA Amphetamines Mean Rates: 320.9 mAU/min
[2]; 150 ng/mL
  Enhanced CEDIA Amphetamines Mean Rates: 233.7 mAU/min
[2]; 300 ng/mL
  Enhanced CEDIA Amphetamines Mean Rates: 271.4 mAU/min
[2]; 500 ng/mL
  Enhanced CEDIA Amphetamines Mean Rates: 308.3 mAU/min
[2]; 700 ng/mL
  Enhanced CEDIA Amphetamines Mean Rates: 334.6 mAU/min
[2]; 1000 ng/mL
  Enhanced CEDIA Amphetamines Mean Rates: 360.8 mAU/min

## CC(N)C(O)c1ccccc1 (stereo not drawn) [phenylpropanolamine]
Antibody 1A9; [10]
  Apparent Dose: 41 ng/mL
  Rate: 185.8 MAU/min

## CN[C@@H](C)[C@@H](O)c1ccccc1 [pseudoephedrine]
Antibody 1A9; [9]
  Apparent Dose: 10 ng/mL
  Rate: 166.6 MAU/min

## (±)ephedrine
Antibody 1A9; [10]
  Apparent Dose: 47 ng/mL
  Rate: 189.7 MAU/min

Marks after values point to notes of the source that are not given here.
